In the supplement of paper PMC4604168 (melanoma cell lines):
Some of the results follow. Repeats are few or missing, and single values can be far off.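 The apoptosis fraction was the count of cleaved-PARP antibody-stained nuclei relative to all DNA-stained nuclei, imaged in 1,536-well plates. Screening doses were set so most cells survived, and baseline and induced cleaved-PARP levels vary greatly across cell lines.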

Test system: UACC257
Assay: cleaved PARP positive nuclei fraction relative to DMSO control; melanoma cells; higher = more apoptosis
Details: library dose: low library concentration; 72 h

Structure (SMILES)	cleaved PARP positive nuclei fraction
CO[C@H]1C[C@@H]2CC[C@@H](C)[C@@](O)(O2)C(=O)C(=O)N2CCCC[C@H]2C(=O)O[C@H]([C@H](C)C[C@@H]2CC[C@@H](OCCO)[C@H](OC)C2)CC(=O)[C@H](C)/C=C(\C)[C@@H](O)[C@@H](OC)C(=O)[C@H](C)C[C@H](C)/C=C/C=C/C=C/1C [everolimus] + CO[C@@H]1[C@H](N(C)C(=O)c2ccccc2)C[C@H]2O[C@]1(C)n1c3ccccc3c3c4c(c5c6ccccc6n2c5c31)C(=O)NC4 [Midostaurin] (first compound 0.02 µM, partner dose 0.08 µM)	77.6%
CO[C@H]1C[C@@H]2CC[C@@H](C)[C@@](O)(O2)C(=O)C(=O)N2CCCC[C@H]2C(=O)O[C@H]([C@H](C)C[C@@H]2CC[C@@H](OCCO)[C@H](OC)C2)CC(=O)[C@H](C)/C=C(\C)[C@@H](O)[C@@H](OC)C(=O)[C@H](C)C[C@H](C)/C=C/C=C/C=C/1C [everolimus] + CCN(CC)CCCCNc1ncc2cc(-c3cc(OC)cc(OC)c3)c(NC(=O)NC(C)(C)C)nc2n1 [PD173074] (first compound 0.02 µM, partner dose 0.1 µM)	221%
CO[C@H]1C[C@@H]2CC[C@@H](C)[C@@](O)(O2)C(=O)C(=O)N2CCCC[C@H]2C(=O)O[C@H]([C@H](C)C[C@@H]2CC[C@@H](OCCO)[C@H](OC)C2)CC(=O)[C@H](C)/C=C(\C)[C@@H](O)[C@@H](OC)C(=O)[C@H](C)C[C@H](C)/C=C/C=C/C=C/1C [everolimus] + Cc1cc(N2CCOCC2)cc2[nH]c(-c3c(NC[C@@H](O)c4cccc(Cl)c4)cc[nH]c3=O)nc12 [BMS536924] (first compound 0.02 µM, partner dose 0.2 µM)	550%
CO[C@H]1C[C@@H]2CC[C@@H](C)[C@@](O)(O2)C(=O)C(=O)N2CCCC[C@H]2C(=O)O[C@H]([C@H](C)C[C@@H]2CC[C@@H](OCCO)[C@H](OC)C2)CC(=O)[C@H](C)/C=C(\C)[C@@H](O)[C@@H](OC)C(=O)[C@H](C)C[C@H](C)/C=C/C=C/C=C/1C [everolimus] + Cn1cc(/C=C2\C(=O)Nc3cccnc32)c2ccccc21 [GW441756] (first compound 0.02 µM, partner dose 0.4 µM)	471%
CO[C@H]1C[C@@H]2CC[C@@H](C)[C@@](O)(O2)C(=O)C(=O)N2CCCC[C@H]2C(=O)O[C@H]([C@H](C)C[C@@H]2CC[C@@H](OCCO)[C@H](OC)C2)CC(=O)[C@H](C)/C=C(\C)[C@@H](O)[C@@H](OC)C(=O)[C@H](C)C[C@H](C)/C=C/C=C/C=C/1C [everolimus] + COc1cc2ncnc(Nc3ccc(Oc4ccccc4)cc3)c2cc1OC [SrcI1] (first compound 0.02 µM, partner dose 2 µM)	329%
CO[C@H]1C[C@@H]2CC[C@@H](C)[C@@](O)(O2)C(=O)C(=O)N2CCCC[C@H]2C(=O)O[C@H]([C@H](C)C[C@@H]2CC[C@@H](OCCO)[C@H](OC)C2)CC(=O)[C@H](C)/C=C(\C)[C@@H](O)[C@@H](OC)C(=O)[C@H](C)C[C@H](C)/C=C/C=C/C=C/1C [everolimus] + CN(NC(=O)CC(=O)NN(C)C(=S)c1ccccc1)C(=S)c1ccccc1 [STA4783] (first compound 0.02 µM, partner dose 0.006 µM)	169%
CO[C@H]1C[C@@H]2CC[C@@H](C)[C@@](O)(O2)C(=O)C(=O)N2CCCC[C@H]2C(=O)O[C@H]([C@H](C)C[C@@H]2CC[C@@H](OCCO)[C@H](OC)C2)CC(=O)[C@H](C)/C=C(\C)[C@@H](O)[C@@H](OC)C(=O)[C@H](C)C[C@H](C)/C=C/C=C/C=C/1C [everolimus] + CCCCCCCCCCCC1=C(O)C(=O)C=C(O)C1=O [Embelin] (first compound 0.02 µM, partner dose 1.2 µM)	174%
CO[C@H]1C[C@@H]2CC[C@@H](C)[C@@](O)(O2)C(=O)C(=O)N2CCCC[C@H]2C(=O)O[C@H]([C@H](C)C[C@@H]2CC[C@@H](OCCO)[C@H](OC)C2)CC(=O)[C@H](C)/C=C(\C)[C@@H](O)[C@@H](OC)C(=O)[C@H](C)C[C@H](C)/C=C/C=C/C=C/1C [everolimus] + COC(=O)c1sccc1S(=O)(=O)Nc1ccc(Nc2ccccc2)cc1OC [GSK0660] (first compound 0.02 µM, partner dose 1 µM)	203%
